The results in this text go back to PMC11259713.

Data set [1] has as its system hnRNPA1 overexpressed (hnRNPA1A). The data set can be described thus: pull-down. The note with it: KYSE150 lysate, pull-down: lysate in 150 mM KCl, 0.5 mM DTT, 0.5% NP-40, 25 mM Tris-HCl pH 7.5, 4 C overnight, protein in a lysate after overexpression, residues 1-320, protein details: SBP-HA or Flag.
Data set [2] concerns hnRNPA1-His (hnRNPA1A). The data set is described as follows: pull-down. As to conditions: purified protein, consistent with lysate result; pull-down: lysate in 150 mM KCl, 0.5 mM DTT, 0.5% NP-40, 25 mM Tris-HCl pH 7.5, 4 C overnight; recombinant protein; residues 1-320; protein details: His (pET-32a vector).
Data set [3] has as its system hnRNPA1-His (hnRNPA1A). The data set is described as follows: BLI. The note with it: RNA on streptavidin probe, higher KD than oligo2, value only in figure; BLI: PBS, 0.002% Tween-20, 0.02% BSA, temperature not stated; recombinant protein; residues 1-320; protein details: His (pET-32a vector).

The exact form of at least one protein or probe is not confirmed. A weaker result is weaker than the reference pair of the same experiment. For some assays here: At least one verdict was read from the data and is not stated in words by the source. For some assays here: Results from cells or extracts need not show a direct contact.

Take “ACAACUGCCACACCGGUAAGGCCAGGCCGC [oligo2-U13C+A14C]”: the binding result (in data set [1] (very little bound); in the data set on hnRNPA1-His (hnRNPA1A) [2]) was “binds more weakly” throughout. Consider “AGCAGCCUCCUCUGCCCUGCUUCUCCCUAGGUUGUU [oligo1]”, for which the binding result in the data set with hnRNPA1-His (hnRNPA1A) [3] is “binds more weakly”; in data set [1] (less than oligo2), “binds”. On to ACAACUGCCACAUAGGUAAGGCCAGGCCGC [oligo2], for which, in data set [1], the binding result is “binds”.
